Data as given in paper PMC10245438, “Domino-like effect of C112R mutation on ApoE4 aggregation and its reduction by Alzheimer’s Disease drug candidate” (Molecular Neurodegeneration, 2023).
Results are given in words; binding and its absence hold for the method and conditions named.

Sequences of proteins named here, by UniProt entry; tags and fusion partners are left off. A change or cut given only in a name is not applied to a line headed by its entry. A line that says so, or that is headed by a name, gives the form on record, which may keep a tag or linker.
APOE3M (P02649, form named): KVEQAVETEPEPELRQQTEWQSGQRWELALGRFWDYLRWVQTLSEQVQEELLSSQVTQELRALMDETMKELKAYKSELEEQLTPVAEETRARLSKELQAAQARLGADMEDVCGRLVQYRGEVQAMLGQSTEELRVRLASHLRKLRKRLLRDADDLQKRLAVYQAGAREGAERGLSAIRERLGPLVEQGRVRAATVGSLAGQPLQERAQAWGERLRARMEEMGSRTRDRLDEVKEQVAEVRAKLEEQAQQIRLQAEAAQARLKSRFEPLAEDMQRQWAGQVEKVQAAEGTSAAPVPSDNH
APOE3M-AS (P02649, form named): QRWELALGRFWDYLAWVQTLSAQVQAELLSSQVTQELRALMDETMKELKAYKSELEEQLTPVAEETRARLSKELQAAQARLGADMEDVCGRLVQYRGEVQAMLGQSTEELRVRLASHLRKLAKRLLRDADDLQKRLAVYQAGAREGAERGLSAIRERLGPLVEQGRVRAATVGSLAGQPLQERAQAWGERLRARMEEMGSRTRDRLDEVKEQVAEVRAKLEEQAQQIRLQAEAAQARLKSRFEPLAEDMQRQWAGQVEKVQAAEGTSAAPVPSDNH
APOE4M (P02649, form named): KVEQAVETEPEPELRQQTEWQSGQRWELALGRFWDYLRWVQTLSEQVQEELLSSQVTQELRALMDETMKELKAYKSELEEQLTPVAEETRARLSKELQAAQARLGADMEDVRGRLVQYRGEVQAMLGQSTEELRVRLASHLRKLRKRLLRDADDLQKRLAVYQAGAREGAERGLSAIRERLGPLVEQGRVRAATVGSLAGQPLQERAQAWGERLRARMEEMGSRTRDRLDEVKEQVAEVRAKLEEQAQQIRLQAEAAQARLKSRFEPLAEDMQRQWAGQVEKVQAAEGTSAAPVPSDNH
APOE4M-AS (P02649, form named): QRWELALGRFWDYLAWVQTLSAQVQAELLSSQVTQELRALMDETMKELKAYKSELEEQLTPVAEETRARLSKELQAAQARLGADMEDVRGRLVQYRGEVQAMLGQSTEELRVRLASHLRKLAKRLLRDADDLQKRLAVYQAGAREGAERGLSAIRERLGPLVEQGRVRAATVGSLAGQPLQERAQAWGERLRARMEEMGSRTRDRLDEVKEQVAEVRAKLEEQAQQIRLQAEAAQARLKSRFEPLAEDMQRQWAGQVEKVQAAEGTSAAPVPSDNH

Assays:
[1] = target: APOE3M (human) (UniProt P02649); assay: static light scattering; ApoE ~10 uM, 37 °C, SLS at 266 nm for 15 h, Tris buffer pH 7.4; also with SPA (20 mM) or tramiprosate, which lowered the signal of ApoE4; both purified
[2] = target: APOE3M (human) (UniProt P02649); assay: HDX-MS; LC-MS/MS peptide mapping after protease digestion (nepenthesin-1 and pepsin) and deuterium uptake at 1, 2, 10 min; 10 mM Tris-HCl, 50 mM NaCl, room temperature; free or with SPA 1:1000; both purified
[3] = target: APOE3M-AS (human) (UniProt P02649); assay: dynamic light scattering; ~0.2 mg/ml, room temperature, size distribution after SEC purification; both purified
[4] = target: APOE4M (human) (UniProt P02649); assay: static light scattering; ApoE ~10 uM, 37 °C, SLS at 266 nm for 15 h, Tris buffer pH 7.4; also with SPA (20 mM) or tramiprosate, which lowered the signal of ApoE4; both purified
[5] = target: APOE4M (human) (UniProt P02649); assay: HDX-MS; LC-MS/MS peptide mapping after protease digestion (nepenthesin-1 and pepsin) and deuterium uptake at 1, 2, 10 min; 10 mM Tris-HCl, 50 mM NaCl, room temperature; free or with SPA 1:1000; both purified
[6] = target: APOE4M-AS (human) (UniProt P02649); assay: dynamic light scattering; ~0.2 mg/ml, room temperature, size distribution after SEC purification; both purified

Question: For APOE3M (from UniProt P02649 19-317), which binding [1] is on record?
Answer: Its binding is “no binding (tested: ~ 10µM)”.

Question: And the binding [2]?
Answer: The binding was “no binding”.

Question: “APOE3M-AS (from UniProt P02649 42-317) (domain or fragment)” was tested. Which binding [3] did it give?
Answer: The binding was “no binding”.

Question: What does the source list for APOE4M (from UniProt P02649 19-317)?
Answer: binding [4]: no binding (tested: ~ 10µM); binding [5]: no binding

Question: “APOE4M-AS (from UniProt P02649 42-317) (domain or fragment)” was tested. Which binding [6] did it give?
Answer: The binding was “no binding”.
